Literature values in patent US20260217691A1, “FOXM1 INHIBITORS AND THEIR USE IN TREATING CANCERS” (THE BOARD OF TRUSTEES OF THE UNIVERSITY OF ILLINOIS, priority 2022, published 2026).

Tested on: FOXM1 pathway
Details: cited from earlier work

SMILES: O=C(Oc1cccc(/C=N/Nc2nc(Nc3ccccc3)nc(N3CCOCC3)n2)c1)c1ccco1 [STL427944]
- other important regulatory pathways (RNA-seq): no significant changes
